From PubChem BioAssay AID624297 (National Center for Advancing Translational Sciences (NCATS), 2012)
The campaign covered roughly 340,000 compounds. About 6,200 (1.8%) were called active. The inconclusive results got no clear call from the source; some entries with a clear call stand among them for comparison. Calls follow the shape of the dose curve; as a rule, active = well fitted activation curve with a large enough effect; inconclusive = small, poorly fitted or top-dose-only effect; inactive = no such curve, though single readings can be large or run the other way. Where the call is inconclusive, the potency comes from a doubtful curve fit.

experiment: A quantitative high throughput screen for small molecules that induce DNA re-replication in SW480 colon adenocarcinoma cells.; also: nearly all actives have a fitted effect of over 55% in size; conditions: Hoechst DNA content imaging, 48 h; series mostly up to 46.1 µM
In short: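 Readout is total intensity of Hoechst-stained nuclei, excited at 405 nm and collected at 500-530 nm. Compound treatment lasted 48 hr at 37 C in 5% CO2 before staining.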
Potency is read from the fitted curve at half-maximal effect.

**Q.** For `Cc1ccc(N2C(=O)[C@@H]3[C@H](C2=O)C2c4ccccc4C=CN2[C@@H]3C(=O)c2ccco2)c(C)c1` (some centres undefined), which Potency is on record?
**A.** inconclusive: 20.6 µM [activator, single point]

**Q.** With `CCOC(=O)/C(C#N)=N\Nc1cc(Cl)ccc1OC` as the compound, how does the Potency read?
**A.** inconclusive: 5.8 µM [activator, partial curve, poor fit]

**Q.** For `O=C1NC(=Nc2cccnc2)S/C1=C/c1ccc(F)cc1`, which Potency is on record?
**A.** inconclusive: 29.1 µM [activator, single point]

**Q.** With `Cc1ccccc1Oc1nc2c(C)cccn2c(=O)c1/C=C(\C#N)C(=O)Nc1c(C)n(C)n(-c2ccccc2)c1=O` as the compound, how does the Potency read?
**A.** inconclusive: 29.1 µM [activator, single point]

**Q.** Which Potency does the source give for `CN(C)c1ccc(NC(=O)C2C3C=CC(C3)C2C(=O)O)cc1` (centres undefined) here?
**A.** inconclusive: 29.1 µM [activator, single point]

**Q.** Which Potency does the source give for `Clc1ccc(C2[C@H]3CN(Cc4ccc(-c5ccccc5)cc4)[C@H](c4ccccc4)C34CC2(c2ccccc2)C4)cn1` (some centres undefined) here?
**A.** inconclusive: 6.51 µM [activator, partial curve, poor fit]

**Q.** Which Potency does the source give for `COC(=O)c1c(NC(=O)c2ccccc2)sc2c1CC(C)(C)NC2(C)C` here?
**A.** inactive

**Q.** Which Potency does the source give for `COc1ccc(N2CCN(CCNC(=O)C3CC(=O)N(C4CCCC4)C3)CC2)cc1` (centres undefined) here?
**A.** inactive

**Q.** With `C=CCOc1ccc(C=CC(=O)c2c(O)c(OC)c(OC)c(OC)c2OC)cc1` as the compound, how does the Potency read?
**A.** inactive

**Q.** Which Potency does the source give for `Cn1nnnc1SC1CC(=O)N(c2ccccc2)C1=O` (centres undefined) here?
**A.** inconclusive: 32.6 µM [activator, partial curve, poor fit]

**Q.** For `O=C(C(c1ccccc1)c1ccccc1)N1CCCc2ccccc21`, which Potency is on record?
**A.** inconclusive: 35.5 µM [activator, single point]

**Q.** Which Potency does the source give for `Cc1ccc(-c2cc(-c3ccccc3)c3c(N)c(S(C)(=O)=O)sc3n2)cc1` here?
**A.** active: 11.6 µM

**Q.** For `Cc1[nH]n(-c2ccccc2)c(=S)c1C=NCCCN=Cc1c(C)[nH]n(-c2ccccc2)c1=S`, which Potency is on record?
**A.** inactive

**Q.** For `c1ccc(-c2ccc3c(c2)c2c4n3CCN=C4CCC2)cc1`, which Potency is on record?
**A.** inconclusive: 20.6 µM [activator, single point]

**Q.** With `COC(=O)C1=CN(c2ccc(F)cc2)C=C(C(=O)OC)C1c1cccc(Br)c1` as the compound, how does the Potency read?
**A.** active: 23.1 µM

**Q.** For `CCCCCCOc1ccc(C(=O)O)cc1C#N`, which Potency is on record?
**A.** inactive

**Q.** For `O=C(NCCCCNC(=O)c1cccnc1Cl)c1cccnc1Cl`, which Potency is on record?
**A.** inconclusive: 6.51 µM [activator, single point]

**Q.** With `C[C@@]12C(=O)Nc3cc(Cl)ccc3C(=O)N1[C@H]1c3cc(Br)ccc3OC[C@@H]1[C@@H]2c1ccccc1` as the compound, how does the Potency read?
**A.** inconclusive: 29.1 µM [activator, single point]

**Q.** With `Cc1cccc(COCC(Cc2ccccc2)N2CCN(C(=O)c3cccc(Cl)c3)CCC2=O)c1` (centres undefined) as the compound, how does the Potency read?
**A.** inconclusive: 16.4 µM [activator, single point]

**Q.** With `CC(=O)c1cccc(NC(=O)c2sc3nc4n(c(=O)c3c2C)CCCCC4)c1` as the compound, how does the Potency read?
**A.** inactive

**Q.** For `COc1ccc(CN2CCNC(=O)C2CC(=O)N(C)C2CCOCC2)c(F)c1` (centres undefined), which Potency is on record?
**A.** inactive

**Q.** For `Cn1c(C(=O)N2CCCC(C(=O)O)C2)cc2sccc21` (centres undefined), which Potency is on record?
**A.** inactive

**Q.** With `CCOc1cc(/C=N\NC(=O)c2ccc(NC(=O)CC)cc2)ccc1OC(=O)c1ccccc1` as the compound, how does the Potency read?
**A.** inconclusive: 7.31 µM [activator, partial curve]

**Q.** For `O=C(c1ccc(Sc2cccc(Cl)c2)c([N+](=O)[O-])c1)N1CCN(c2ccccn2)CC1`, which Potency is on record?
**A.** inconclusive: 32.6 µM [activator, partial curve, poor fit]

**Q.** With `CCCc1cc(=O)oc2c3c(cc(OCC(=O)NCCN4CCOCC4)c12)OC(C)(C)CC3` as the compound, how does the Potency read?
**A.** inactive

**Q.** With `CSC1=C(C#N)C(C)C2=C(CC(C)(C)CC2=O)N1` (centres undefined) as the compound, how does the Potency read?
**A.** inactive

**Q.** For `COc1ccc(CN2CCN(Cc3cccn3-c3ncccn3)CC2CCO)c(C)c1C` (centres undefined), which Potency is on record?
**A.** inactive

**Q.** For `Cc1nnc(SC(=O)N2c3ccccc3Sc3ccccc32)s1`, which Potency is on record?
**A.** inactive

**Q.** With `COC(=O)c1c(NC(=O)c2cccc(S(=O)(=O)N3CCN(C)CC3)c2)sc(C)c1C` as the compound, how does the Potency read?
**A.** inconclusive: 20.6 µM [activator, single point]

**Q.** For `COc1cccc(CC(O)CC2c3c(cc4c(c3OC)OCO4)CCN2C)c1` (centres undefined), which Potency is on record?
**A.** inconclusive: 18.4 µM [activator, partial curve, poor fit]

**Q.** For `COc1ccc(CCNC(=O)C2CCN(S(=O)(=O)c3ccc4c(c3)oc(=O)n4C)CC2)cc1OC`, which Potency is on record?
**A.** inconclusive: 29.1 µM [activator, single point]

**Q.** Which Potency does the source give for `O=C(c1cc(N2C(=O)C3C4CCC(C4)C3C2=O)ccc1Cl)N1CCN(c2ccccc2)CC1` (centres undefined) here?
**A.** inconclusive: 16.4 µM [activator, partial curve, poor fit]

**Q.** With `O=C(Nc1cccnc1)c1ccc(COCC(F)(F)F)cc1` as the compound, how does the Potency read?
**A.** inactive

**Q.** With `COc1ccc(/C=C/C(=O)NCC(=O)N=Nc2c(O)[nH]c3ccc([N+](=O)[O-])cc23)cc1` as the compound, how does the Potency read?
**A.** inconclusive: 29.1 µM [activator, single point]

**Q.** With `CCOc1ccc(-c2c(C)n([O-])c3c([n+]2=O)CCCCC3)cc1` as the compound, how does the Potency read?
**A.** inconclusive: 0.116 µM [activator, full curve, poor fit]

**Q.** With `O=C(Nc1ccc(Oc2cccc3ccccc23)cc1)c1ccco1` as the compound, how does the Potency read?
**A.** inconclusive: 25.9 µM [activator, single point]

**Q.** For `CNC(=O)NC(=O)COC(=O)CCCSc1nc2ccccc2s1`, which Potency is on record?
**A.** inactive

**Q.** With `O=C(N/N=C/c1cccn1-c1ccc(O)cc1)c1cccc2ccccc12` as the compound, how does the Potency read?
**A.** inconclusive: 29.1 µM [activator, single point]

**Q.** Which Potency does the source give for `COc1ccc2oc(=O)c(-c3cn4ccc(C)cc4n3)cc2c1` here?
**A.** inconclusive: 29.1 µM [activator, single point]

**Q.** Which Potency does the source give for `C=CCS/C(=N\n1cnc2ccccc2c1=O)N1CCCCC1` here?
**A.** inactive

**Q.** With `COc1cccc(-c2sc3ccc(OC)cc3c2-c2ccc(OCCN3CCCCC3)cc2)c1` as the compound, how does the Potency read?
**A.** inconclusive: 29.1 µM [activator, single point]

**Q.** With `O=C(N/N=C/c1cc([N+](=O)[O-])ccc1O)c1ccc2c(c1)OCCO2` as the compound, how does the Potency read?
**A.** inconclusive: 12.6 µM [activator, single point]

**Q.** For `Cc1cccc(C)c1NC(=O)C(NC(=O)c1ccccn1)c1ccccc1[N+](=O)[O-]` (centres undefined), which Potency is on record?
**A.** inconclusive: 29.1 µM [activator, single point]

**Q.** Which Potency does the source give for `COc1ccc(N(C(=O)Cn2nnc(-c3ccc(F)cc3)n2)C(C)C(=O)NC2CCCC2)cc1` (centres undefined) here?
**A.** inconclusive: 8.2 µM [activator, partial curve]

**Q.** Which Potency does the source give for `C/C(=N\NC(=O)c1cccnc1)c1ccc(OC2OCCOC2Oc2ccc(/C(C)=N/NC(=O)c3cccnc3)cc2)cc1` (centres undefined) here?
**A.** inconclusive: 29.1 µM [activator, single point]

**Q.** For `COc1cc(CNC2CCCCCCC2)cc(Cl)c1OCC(N)=O`, which Potency is on record?
**A.** inconclusive: 18.4 µM [activator, single point]

**Q.** For `O=C(N[C@@H](Cc1c[nH]c2ccccc12)C(=O)NC1CC1)c1ccccc1Cl`, which Potency is on record?
**A.** inconclusive: 0.206 µM [activator, full curve, poor fit]

**Q.** Which Potency does the source give for `CS(=O)(=O)Nc1cccc2cccnc12` here?
**A.** inconclusive: 23.1 µM [activator, single point]

**Q.** For `Cc1nn(Cc2ccc(Cl)c(Cl)c2)c(C)c1NC(=O)c1cc(-c2ccc3c(c2)OCO3)on1`, which Potency is on record?
**A.** active: 16.4 µM

**Q.** Which Potency does the source give for `CCN(CC)C(=S)S` here?
**A.** inconclusive: 1.19 µM [activator, full curve]

**Q.** For `Cc1c(-c2nnnn2-c2ccc(F)cc2)cnc2cc3c(cc12)OCO3`, which Potency is on record?
**A.** inactive

**Q.** With `CCOC(=O)c1sc2nccc(N(C)C)c2c1N=CNOCc1ccccc1` as the compound, how does the Potency read?
**A.** inconclusive: 29.1 µM [activator, single point]

**Q.** For `Cc1cc(C)n(-c2ccn(Cc3ccc(Cl)cc3Cl)c(=O)n2)n1`, which Potency is on record?
**A.** inactive

**Q.** With `CC1CC(C)CN(CCOc2cccc(Cl)c2Cl)C1` (centres undefined) as the compound, how does the Potency read?
**A.** inactive

**Q.** For `CCOc1cc(/C=N/NC(=O)c2cc3c(ccc4ccccc43)o2)ccc1O`, which Potency is on record?
**A.** inconclusive: 29.1 µM [activator, single point]

**Q.** For `O=C(CSc1nc(-c2cccs2)cc(C(F)(F)F)n1)Nc1cc(OCC(F)(F)C(F)F)cc([N+](=O)[O-])c1`, which Potency is on record?
**A.** inconclusive: 29.1 µM [activator, single point]

**Q.** With `CCn1c(=O)n(CC(=O)NCC2CCCO2)c(=O)c2c3c(sc21)CCCC3` (centres undefined) as the compound, how does the Potency read?
**A.** inconclusive: 20.6 µM [activator, single point]

**Q.** Which Potency does the source give for `COc1ccc(C(=O)CC(=O)C(=O)NCCc2cccc(C)c2)cc1` here?
**A.** inconclusive: 20.6 µM [activator, partial curve, poor fit]

**Q.** With `COc1ccc(/C=C/c2nnc(NC(=O)CC(C)C)s2)cc1` as the compound, how does the Potency read?
**A.** inconclusive: 23.1 µM [activator, single point]

**Q.** With `O=C(NC1CCCCC1)c1cc(N2C(=O)CCC2=O)ccc1Cl` as the compound, how does the Potency read?
**A.** inactive

**Q.** Which Potency does the source give for `FC(F)(F)C(Oc1nc(NC2CCCCC2)nc(N2CCOCC2)n1)C(F)(F)F` here?
**A.** inconclusive: 29.1 µM [activator, partial curve, poor fit]

**Q.** Which Potency does the source give for `O=C(NCC1CCCO1)C1CCN(S(=O)(=O)c2cc(Cl)ccc2Cl)CC1` (centres undefined) here?
**A.** inactive

**Q.** For `O=C(CCN1CCN(C/C=C/c2ccccc2)CC1)Nc1ccccc1F`, which Potency is on record?
**A.** inactive

**Q.** For `Cc1ccc(NC(=O)CN2C(=O)N/C(=C/c3ccc(C)s3)C2=O)cc1`, which Potency is on record?
**A.** inactive

**Q.** With `Cc1occc1C(=O)N/N=C/C=C/c1ccccc1[N+](=O)[O-]` as the compound, how does the Potency read?
**A.** inactive

**Q.** Which Potency does the source give for `O=C(NCC1CCCO1)c1ccc([N+](=O)[O-])s1` (centres undefined) here?
**A.** inconclusive: 7.08 µM [activator, full curve]

**Q.** Which Potency does the source give for `CCCCN(C(=O)C1CCCC1)C1CCS(=O)(=O)C1` (centres undefined) here?
**A.** inactive

**Q.** With `COc1ccc(CSCC(=O)N/N=C/c2ccc(OCC(=O)N3CCCCC3)cc2)cc1` as the compound, how does the Potency read?
**A.** inconclusive: 29.1 µM [activator, single point]

**Q.** Which Potency does the source give for `COc1ccc(C)c2sc(NC(=O)CCS(=O)(=O)c3ccccc3)nc12` here?
**A.** inconclusive: 29.1 µM [activator, single point]
